Results on 1 molecule are retold here after article PMC9205938.

Results are given in words; binding and its absence hold for the method and conditions named. Binding seen in cells or lysates may run through a third protein. Binding calls can cover weak binding; strength is not graded here.

The experiment deals with zinc finger domain of ZFP281 (FLAG-tagged ZFP281 truncated protein). Briefly: co-IP; N-terminally FLAG-tagged ZFP281 (full length, truncated) or BRCA2 truncated proteins expressed in 293 T cells for 48 hrs; ANTI-FLAG M2 affinity gel, western blot. (In western blotting, separated proteins are transferred to a membrane and probed.)

B1: EMSY in 293 cells (protein, UniProt Q7Z589 1-1322)
chain: MPVVWPTLLDLSRDECKRILRKLELEAYAGVISALRAQGDLTKEKKDLLGELSKVLSISTERHRAEVRRAVNDERLTTIAHNMSGPNSSSEWSIEGRRLVPLMPRLVPQTAFTVTANAVANAAIQHNASLPVPAETGSKEVVCYSYTSTTSTPTSTPVPSGSIATVKSPRPASPASNVVVLPSGSTVYVKSVSCSDEDEKPRKRRRTNSSSSSPVVLKEVPKAVVPVSKTITVPVSGSPKMSNIMQSIANSLPPHMSPVKITFTKPSTQTTNTTTQKVIIVTTSPSSTFVPNILSKSHNYAAVTKLVPTSVIASTTQKPPVVITASQSSLVSNSSSGSSSSTPSPIPNTVAVTAVVSSTPSVVMSTVAQGVSTSAIKMASTRLPSPKSLVSAPTQILAQFPKQHQQSPKQQLYQVQQQTQQQVAQPSPVSHQQQPQQSPLPPGIKPTIQIKQESGVKIITQQVQPSKILPKPVTATLPTSSNSPIMVVSSNGAIMTTKLVTTPTGTQATYTRPTVSPSIGRMAATPGAATYVKTTSGSIITVVPKSLATLGGKIISSNIVSGTTTKITTIPMTSKPNVIVVQKTTGKGTTIQGLPGKNVVTTLLNAGGEKTIQTVPTGAKPAILTATRPITKMIVTQPKGIGSTVQPAAKIIPTKIVYGQQGKTQVLIKPKPVTFQATVVSEQTRQLVTETLQQASRVAEAGNSSIQEGKEEPQNYTDSSSSSTESSQSSQDSQPVVHVIASRRQDWSEHEIAMETSPTIIYQDVSSESQSATSTIKALLELQQTTVKEKLESKPRQPTIDLSQMAVPIQMTQEKRHSPESPSIAVVESELVAEYITTERTDEGTEVAFPLLVSHRSQPQQPSQPQRTLLQHVAQSQTATQTSVVVKSIPASSPGAITHIMQQALSSHTAFTKHSEELGTEEGEVEEMDTLDPQTGLFYRSALTQSQSAKQQKLSQPPLEQTQLQVKTLQCFQTKQKQTIHLQADQLQHKLPQMPQLSIRHQKLTPLQQEQAQPKPDVQHTQHPMVAKDRQLPTLMAQPPQTVVQVLAVKTTQQLPKLQQAPNQPKIYVQPQTPQSQMSLPASSEKQTASQVEQPIITQGSSVTKITFEGRQPPTVTKITGGSSVPKLTSPVTSISPIQASEKTAVSDILKMSLMEAQIDTNVEHMIVDPPKKALATSMLTGEAGSLPSTHMVVAGMANSTPQQQKCRESCSSPSTVGSSLTTRKIDPPAVPATGQFMRIQNVGQKKAEESPAEIIIQAIPQYAIPCHSSSNVVVEPSGLLELNNFTSQQLDDEETAMEQDIDSSTEDGTEPSPSQSSAERS
Turning to B1, the binding entry was “binds”.
